## Primary screen of a compound library

Amino acid sequences for entries named in this document (tags omitted).
UniProt E9BF75, entry or part of it: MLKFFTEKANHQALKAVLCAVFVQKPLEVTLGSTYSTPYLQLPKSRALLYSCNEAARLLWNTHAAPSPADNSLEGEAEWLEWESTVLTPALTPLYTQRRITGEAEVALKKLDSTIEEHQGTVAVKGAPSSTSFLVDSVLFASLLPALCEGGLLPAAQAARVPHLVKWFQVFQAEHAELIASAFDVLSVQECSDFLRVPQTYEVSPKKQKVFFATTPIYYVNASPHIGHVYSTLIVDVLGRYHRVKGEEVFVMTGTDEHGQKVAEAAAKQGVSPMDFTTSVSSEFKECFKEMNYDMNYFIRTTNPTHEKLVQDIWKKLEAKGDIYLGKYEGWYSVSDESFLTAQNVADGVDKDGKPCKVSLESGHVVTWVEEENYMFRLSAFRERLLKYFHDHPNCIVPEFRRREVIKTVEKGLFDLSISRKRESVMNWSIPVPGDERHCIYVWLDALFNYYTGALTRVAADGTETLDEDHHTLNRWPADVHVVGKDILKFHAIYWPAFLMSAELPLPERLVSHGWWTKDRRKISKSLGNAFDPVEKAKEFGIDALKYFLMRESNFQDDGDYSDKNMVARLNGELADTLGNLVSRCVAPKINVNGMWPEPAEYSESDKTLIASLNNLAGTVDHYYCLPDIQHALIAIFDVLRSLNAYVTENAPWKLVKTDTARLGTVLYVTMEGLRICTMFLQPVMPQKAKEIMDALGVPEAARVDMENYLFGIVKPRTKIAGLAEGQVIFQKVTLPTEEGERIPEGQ

Results are percentages, as filed. The record does not define 0% and 100%; most values in the screen are far below 50% and negative numbers occur (in some assays of this library far below -100). Compounds were drawn at random from those tested, without regard to their results.

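Primary screen of methionyl-tRNA synthetase; the read-out is not stated. Target: Methionyl-tRNA synthetase (putative), Leishmania donovani (UniProt E9BF75). The test concentration is not given. Values are per cent inhibition. Of about 68,000 compounds tested this way, about 24 (0.035%) reached 50% or more in at least one test.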

| structure | Inhibition |
|---|---|
| `Cn1nc(C(=O)NCCc2ccc(OC3CCCC3)cc2)ccc1=O` | 2.514 |
| `CCc1nc(CN(C(C)=O)C2CCN(CCc3ccncc3)C2)no1` (centres unmarked) | 12.68 |
| `CCN1C[C@H]2CCN(c3ncccn3)CC[C@H]2S1(=O)=O` | 15.96 |
| `CC(C)(C)c1ccc(-n2ncc3c2CCCC3N)cc1` (centres unmarked) | 12.47 |
| `COc1cccc2c1ccn2CCNC(=O)C1CCC1` | 13.03 |
| `CC(O)CN1CCN(C(=O)c2cn(-c3ccccc3Cl)nn2)CC1` (centres unmarked) | 13.75 |
| `OCCNc1nccc(-c2c[nH]nc2-c2cccnc2)n1` | 13.35 |
| `CN(C(=O)Cc1ccc2c(c1)OCCO2)C1CCCC1` | 7.042 |
| `CC(=O)C(Cc1ccccc1)NC(=O)CSc1nncn1C` (centres unmarked) | 9.924 |
| `COc1cccc(OCC(=O)NCc2ccc3[nH]c(=O)[nH]c3c2)c1` | 16.09 |
| `COc1ccccc1CCNC(=O)N1CCC(n2cncn2)CC1` | 14.81 |
| `CC(=O)NCC1CCN(c2cc(C(C)C)nc3ccnn23)CC1` | 10.44 |
| `Cc1cc(C)n(CC2CCCN2CC(=O)Nc2nnc(C)s2)n1` (centres unmarked) | 3.147 |
| `COc1cc(CC(=O)Nc2cccc(C(=O)N(C)C)n2)ccc1C` | 9.749 |
| `Cc1ccc(N2CCC3(CCCN(C(=O)c4cccnc4)C3)C2)nn1` (centres unmarked) | 2.146 |
| `CCC1CN(C(=O)c2ccccc2C(C)=O)CCN1C(C)C` (centres unmarked) | 5.914 |
| `CCc1noc(C(C)N2CCC(N3CCCCC3)CC2)n1` (centres unmarked) | 22.25 |
| `CCOc1ccc(CN2CCN(C(=O)c3ccc(C)n3C)CC2)cc1` | 18.88 |
| `CC(Cc1cn(CCc2nc(N)cc(O)n2)nn1)c1ccccc1` (centres unmarked) | 11.23 |
| `CCC(O)(CNCc1ccncc1)c1ccc(Br)cc1` (centres unmarked) | 10.43 |
| `Cc1c(C2SCC(=O)Nc3c2c(O)nn3C(C)C)cnn1C` (centres unmarked) | 10.5 |
| `CCc1nc(C2CCCN(C(=O)c3ccccc3Cl)C2)no1` (centres unmarked) | 25.7 |
| `CN(CC(=O)Nc1ccc(Br)cn1)C(=O)C(C)(C)C` | 24.57 |
| `CCn1nc(C)cc1C(=O)OCCNC(=O)c1ccccc1` | 12.09 |
| `O=C(N1CCC(Oc2ccncc2)C1)C1(c2cccc(F)c2)CC1` (centres unmarked) | 2.957 |
| `Cc1ccsc1-c1cccc(-c2ccn(CC3CCNC3)n2)c1` (centres unmarked) | 5.115 |

Repeated from the top, 3 entries:

structure,Inhibition
Cn1nc(C(=O)NCCc2ccc(OC3CCCC3)cc2)ccc1=O,2.514
CCc1nc(CN(C(C)=O)C2CCN(CCc3ccncc3)C2)no1 (centres unmarked),12.68
CCN1C[C@H]2CCN(c3ncccn3)CC[C@H]2S1(=O)=O,15.96

From ChEMBL document CHEMBL3988442, “University of Dundee, Small-Polar-MMV Screening Library” (2021).